The list is a part of this screen's results and no random one: it is rich in T/C values a quarter to a half above the control, in often repeated tests (any T/C) and in doses without a T/C. Other doses and runs of a compound stand elsewhere. T/C is the treated group as % of the vehicle group. Schedule codes are those of the source, read here as Q, the interval in days (D) or hours (H), X, the number of doses. Some T/C values carry the count of animals alive at the toxicity check (mostly the fifth day); without a count, all were alive then. Some doses have a count of surviving animals in place of a T/C: the source files T/C as zero there, which appears to mark a toxic dose or a test without result, not a measured value. Survivors were counted at the toxicity check, usually on the fifth day, unless a day is given; later deaths do not show. Some entries hold several experiments; the values are given in rising order.
Tested on: nude mice, LX-1 lung xenograft intrarenal, tumor weight T/C
Experiment: NCI In Vivo Anticancer Drug Screen. Data for tumor model Human Lung LX-1 Xenograft (intrarenal inoculation) in NU/NU Swiss (nude) mice
Settings: T/C endpoint: mean tumor weight change, higher T/C = larger tumour; for T/C: evaluated on day 11
Procedure: The antitumor activity of compounds was measured in mice bearing transplantable tumors. Survival or tumor size were measured and the results are expressed as the measurement made in the treated group (T) divided by the measurement made in the vehicle treated control group (C). The tumor model used in this assay is Human Lung LX-1 Xenograft (intrarenal inoculation) in NU/NU Swiss (nude) mice

[1] = dose: 300.0 mg/kg/injection, schedule: Q04DX003 (sc), vehicle: saline with Tween-80
[2] = dose: 37.5 mg/kg/injection, schedule: Q04DX003 (sc), vehicle: saline with Tween-80
[3] = dose: 1200.0 mg/kg/injection, schedule: Q04DX003 (sc), vehicle: saline with Tween-80

Compound: CN(C)C(=O)c1cccc(COc2ccc(N3C(N)=NC(N)=NC3(C)C)cc2Cl)c1
- survivor count (dose: 50.0 mg/kg/injection, schedule: Q01DX010 (sc), vehicle: saline): 0 of 3 on day 11
- survivor count (dose: 50.0 mg/kg/injection, schedule: Q01DX010 (sc), vehicle: suspension in saline): 0 of 3 on day 11
- survivor count (dose: 100.0 mg/kg/injection, schedule: Q01DX010 (sc), vehicle: suspension in saline): 0 of 3 on day 11
- survivor count (dose: 200.0 mg/kg/injection, schedule: Q01DX010 (sc), vehicle: suspension in saline): 0 of 3 on day 11

Compound: CC(=O)N(C)C
- T/C (dose: 900.0 mg/kg/injection, schedule: Q01DX010 (sc), vehicle: saline): 143 % of control
- T/C (dose: 1800.0 mg/kg/injection, schedule: Q01DX010 (sc), vehicle: saline): 125 % of control
- survivor count (dose: 3600.0 mg/kg/injection, schedule: Q01DX010 (sc), vehicle: saline): 1 of 3 on day 11

Compound: CNC(=O)n1c(N)nc(-c2ccccc2)c1-c1ccccc1
- survivor count [1]: 2 of 5 on day 11

Compound: CC[C@](O)(C(=O)O)c1cc2n(c(=O)c1CO)Cc1cc3ccccc3nc1-2
- survivor count (dose: 32.0 mg/kg/injection, schedule: Q04DX003 (sc), vehicle: saline): 1 of 6 on day 11
- survivor count (dose: 64.0 mg/kg/injection, schedule: Q04DX003 (sc), vehicle: saline): 0 of 6 on day 11
- survivor count (dose: 100.0 mg/kg/injection, schedule: Q04DX003 (sc), vehicle: saline): 0 of 6 on day 11
- survivor count (dose: 128.0 mg/kg/injection, schedule: Q04DX003 (sc), vehicle: saline): 0 of 6 on day 11
- survivor count (dose: 200.0 mg/kg/injection, schedule: Q04DX003 (sc), vehicle: saline): 0 of 6 on day 11
- survivor count (dose: 250.0 mg/kg/injection, schedule: Q04DX003 (sc), vehicle: saline): 0 of 6 on day 11
- survivor count (dose: 400.0 mg/kg/injection, schedule: Q04DX003 (sc), vehicle: saline): 0 of 6 on day 11
- survivor count (dose: 800.0 mg/kg/injection, schedule: Q04DX003 (sc), vehicle: saline): 0 of 6 on day 11

Compound: CC1OC(OC2CC(O)(C(=O)CO)Cc3c(O)c4c(c(O)c32)C(=O)c2ccccc2C4=O)CC(N)C1O (stereo not given)
- T/C (dose: 0.25 mg/kg/injection, schedule: Q01DX010 (sc), vehicle: water): 138 % of control [2 of 2 alive on day 11]
- survivor count (dose: 2.0 mg/kg/injection, schedule: Q01DX010 (sc), vehicle: water): 0 of 3 on day 11

Compound: Cc1cc(NCCCN(C)C)c2ccc3c(ccc4c(NCCCN(C)C)cc(C)nc43)c2n1
- survivor count [2]: 0 of 6 on day 11
- survivor count (dose: 75.0 mg/kg/injection, schedule: Q04DX003 (sc), vehicle: saline with Tween-80): 0 of 6 on day 11

Compound: CNc1nc(N(C)C)nc(N(C)C)n1
- T/C (dose: 25.0 mg/kg/injection, schedule: Q04DX003 (sc), vehicle: water): 130 % of control [5 of 6 alive on day 11]
- T/C (dose: 50.0 mg/kg/injection, schedule: Q04DX003 (sc), vehicle: water): 140 % of control
- T/C (dose: 100.0 mg/kg/injection, schedule: Q04DX003 (sc), vehicle: water): 125 % of control
- survivor count (dose: 120.0 mg/kg/injection, schedule: Q01DX010 (ip), vehicle: water): 1 of 3 on day 11
- survivor count (dose: 200.0 mg/kg/injection, schedule: Q04DX003 (sc), vehicle: water): 1 of 3 on day 11
- survivor count (dose: 400.0 mg/kg/injection, schedule: Q04DX003 (ip), vehicle: water): 0 of 3 on day 11
- survivor count (dose: 400.0 mg/kg/injection, schedule: Q04DX003 (sc), vehicle: water): 0 of 3 on day 11

Compound: COc1cc2cc(c1Cl)N(C)C(=O)CC(OC(=O)CC(C)C)C1(C)OC1C(C)C1CC(O)(NC(=O)O1)C(OC)/C=C/C=C(C)C2 (stereo not given)
- survivor count (dose: 100.0 micrograms/kg/injection, schedule: Q01DX010 (sc), vehicle: saline + alcohol): 0 of 3 on day 11

Compound: CCNC(=O)[B-][N+](C)(C)C
- survivor count (dose: 800.0 mg/kg/injection, schedule: Q04DX003 (sc), vehicle: Klucel (hydroxypropylcellulose) (HPC)): 0 of 6 on day 11

Compound: COC1C(C)OC(OC2CC(C)(O)Cc3cc4c(c(O)c32)C(=O)c2c(O)cc3c(c2C4=O)OC2OC3(C)C(O)C(N(C)C)C2O)C(OC)C1(C)OC (stereo not given)
- T/C (dose: 10.0 mg/kg/injection, schedule: Q04DX003 (sc), vehicle: Klucel (hydroxypropylcellulose) (HPC)): 130 % of control

Compound: C[CH2][Pb]([CH2]C)([CH2]C)[O]C(=O)COc1ccccc1
- survivor count (dose: 36.0 mg/kg/injection, schedule: Q04DX003 (sc), vehicle: saline with Tween-80): 0 of 6 on day 11
- survivor count (dose: 72.0 mg/kg/injection, schedule: Q04DX003 (sc), vehicle: saline with Tween-80): 0 of 6 on day 11

Compound: Nc1nc([Se])c2ncn(C3OC(CO)C(O)C3O)c2n1 (stereo not given)
- T/C (dose: 4.0 mg/kg/injection, schedule: Q01DX010 (sc), vehicle: saline): 140 % of control
- survivor count (dose: 16.0 mg/kg/injection, schedule: Q01DX010 (sc), vehicle: saline): 0 of 3 on day 11 and 1 of 3 on day 11
- survivor count (dose: 32.0 mg/kg/injection, schedule: Q01DX010 (sc), vehicle: saline): 0 of 3 on day 11
- survivor count (dose: 53.3 mg/kg/injection, schedule: Q04DX003 (sc), vehicle: saline): 1 of 2 on day 11

Compound: COc1ccc(S(=O)(=O)N=N/C=C2\C=CC=CN2O)cc1OC
- T/C [2]: 130 % of control
- survivor count [3]: 0 of 6 on day 11

Compound: OCC1OC(n2cnc3c2NC=NC[C@H]3O)CC1O (stereo not given in full)
- survivor count (dose: 8.0 mg/kg/injection, schedule: Q01DX010 (sc), vehicle: water): 2 of 6 on day 11
- survivor count (dose: 16.0 mg/kg/injection, schedule: Q01DX010 (sc), vehicle: water): 1 of 6 on day 11

Compound: N=C(N)SCc1c2ccccc2c(CSC(=N)N)c2ccccc12
- T/C (dose: 200.0 mg/kg/injection, schedule: Q04DX003 (sc), vehicle: suspension in saline): 130 % of control

Compound: CCOC(=O)C(N)C[S][Sn]([CH3])([CH3])[Cl] (stereo not given)
- survivor count (dose: 150.0 mg/kg/injection, schedule: Q04DX003 (sc), vehicle: saline): 0 of 6 on day 11

Compound: C=CC(=O)N1CN(C(=O)C=C)CN(C(=O)C=C)C1
- survivor count (dose: 50.0 mg/kg/injection, schedule: Q01DX010 (sc), vehicle: saline with Tween-80): 0 of 3 on day 11

Compound: CN1C(=O)CC2(CCN(CCCC(=O)c3ccc(F)cc3)CC2)C1=O
- T/C (dose: 37.5 mg/kg/injection, schedule: Q04DX003 (sc), vehicle: suspension in saline): 125 % of control

Compound: CN(CO)c1nc(N(C)CO)nc(N(C)CO)n1
- survivor count (dose: 25.0 mg/kg/injection, schedule: Q01DX008 (ip), vehicle: saline): 0 of 5
- survivor count (dose: 50.0 mg/kg/injection, schedule: Q01DX008 (ip), vehicle: saline): 0 of 5
- survivor count (dose: 100.0 mg/kg/injection, schedule: Q01DX008 (ip), vehicle: saline): 0 of 5 and 1 of 5
- survivor count (dose: 200.0 mg/kg/injection, schedule: Q01DX008 (ip), vehicle: saline): 0 of 5
- survivor count (dose: 200.0 mg/kg/injection, schedule: Q01DX010 (sc), vehicle: saline): 0 of 3 on day 11

Compound: CCCCCCCC(=O)N/N=C(\CO)[C@]1(O)Cc2c(O)c3c(c(O)c2[C@@H](OC2CC(N)C(O)C(C)O2)C1)C(=O)c1c(OC)cccc1C3=O (stereo not given in full)
- survivor count (dose: 100.0 mg/kg/injection, schedule: Q01DX010 (sc), vehicle: water): 0 of 3 on day 11

Compound: CC(=O)CC(C)=O.CC(=O)CC(C)=O.O=N[O-].O=N[O-].[Co]
- T/C [2]: 129 % of control
- T/C (dose: 150.0 mg/kg/injection, schedule: Q04DX003 (sc), vehicle: saline with Tween-80): 149 % of control
- survivor count [1]: 3 of 6 on day 11

Compound: CC(=O)Nc1ccc(O)c(O)c1
- T/C [3]: 128 % of control [5 of 6 alive on day 11]

Compound: COC1C(O)CC(OC2CC(OC3CC(O[C@@H]4C(=O)c5c(cc6cc(OC7CC(OC8CC(O)C(O)C(C)O8)C(O)C(C)O7)c(C)c(O)c6c5O)C[C@H]4[C@H](OC)C(=O)[C@@H](O)[C@@H](C)O)OC(C)C3O)OC(C)C2O)OC1C (stereo not given in full)
- survivor count (dose: 6.0 mg/kg/injection, schedule: Q01DX010 (sc), vehicle: saline): 0 of 2 on day 11 and 0 of 3 on day 11

Source: PubChem BioAssay AID264 (DTP/NCI, 2004)
